# Experimental data from the supplement of paper PMC5393889.
# This is one part of the list.
# Test system: Caenorhabditis elegans N2
# Test: aldicarb interaction hit call (worm growth perturbed in combination with 10 uM aldicarb in both replicates, no effect as single agent) (binary (1 = interacts)); higher = interacts with aldicarb (growth perturbed)
# Settings: first compound 1.5 µM; aldicarb concentration 10 µM; 6 days; 20 °C
row,SMILES,aldicarb interaction hit call
1,Cc1cc(-c2nc3ncccc3o2)ccc1NC(=O)c1cccc(Cl)c1 [wact-137] + CNC(=O)O/N=C/C(C)(C)SC [aldicarb],inactive: 0
2,CC1CCN(Cc2nc(-c3ccccc3)no2)CC1.Cl [wact-572] + CNC(=O)O/N=C/C(C)(C)SC [aldicarb],inactive: 0
3,CCCc1ccc(-c2ccc(OC(F)(F)F)cc2)nc1 [wact-432] + CNC(=O)O/N=C/C(C)(C)SC [aldicarb],inactive: 0
4,Cc1cc(-c2nc3cc(N)ccc3o2)ccc1Br [wact-602] + CNC(=O)O/N=C/C(C)(C)SC [aldicarb],inactive: 0
5,FC(F)(F)c1cccc(N2CCN(C3CCCN(Cc4cccc5c4OCO5)C3)CC2)c1 (stereo not drawn) [wact-331] + CNC(=O)O/N=C/C(C)(C)SC [aldicarb],inactive: 0
6,CC(=O)NC(=S)Nc1ccc(Cl)cc1 [wact-472] + CNC(=O)O/N=C/C(C)(C)SC [aldicarb],inactive: 0
7,OC(COc1ccc(CNCc2ccc(C(F)(F)F)cc2)cc1)CN1CCCCC1 (stereo not drawn) [wact-284] + CNC(=O)O/N=C/C(C)(C)SC [aldicarb],inactive: 0
8,CSc1ccccc1C(=O)NCCSC(C)(C)C [wact-610] + CNC(=O)O/N=C/C(C)(C)SC [aldicarb],inactive: 0
9,C#CCOc1ccc(-c2nc(-c3ccccn3)no2)cc1 [wact-616] + CNC(=O)O/N=C/C(C)(C)SC [aldicarb],inactive: 0
10,CCCN1CCC(C(=O)Nc2ccc(-c3cccc(C)c3)cc2)CC1 [wact-267] + CNC(=O)O/N=C/C(C)(C)SC [aldicarb],inactive: 0
11,O=C(c1ccc(-c2ccccc2)cc1)C1CCCN(C2CCOCC2)C1 (stereo not drawn) [wact-298] + CNC(=O)O/N=C/C(C)(C)SC [aldicarb],inactive: 0
12,CN(Cc1cccc(F)c1F)CC1CCN(CCc2ccc(F)cc2)CC1 [wact-292] + CNC(=O)O/N=C/C(C)(C)SC [aldicarb],inactive: 0
13,COc1ccc2c(c1)c1nc(C)sc1n2CCN1CCCCC1.Cl [wact-168] + CNC(=O)O/N=C/C(C)(C)SC [aldicarb],inactive: 0
14,Fc1cccc(-c2nc(-c3cccnc3)no2)c1 [wact-579] + CNC(=O)O/N=C/C(C)(C)SC [aldicarb],inactive: 0
15,Cl.c1ccc(COc2cccc(CNCc3cccs3)c2)cc1 [wact-118] + CNC(=O)O/N=C/C(C)(C)SC [aldicarb],inactive: 0
16,Fc1ccc(CNc2ccc(N3CCN(Cc4ccccc4)CC3)cc2)cc1 [wact-631] + CNC(=O)O/N=C/C(C)(C)SC [aldicarb],inactive: 0
17,CCn1cc(CN2CCCC(C(=O)c3ccc(-c4ccccc4)cc3)C2)cn1 (stereo not drawn) [wact-314] + CNC(=O)O/N=C/C(C)(C)SC [aldicarb],inactive: 0
18,CCOc1nnc(-c2ccccc2)c2ccccc12 [wact-25] + CNC(=O)O/N=C/C(C)(C)SC [aldicarb],inactive: 0
19,Cc1cc(N2CCN(C(=O)c3ccccc3)CC2)c(F)cc1[N+](=O)[O-] [wact-439] + CNC(=O)O/N=C/C(C)(C)SC [aldicarb],inactive: 0
20,Cc1oc(-c2ccc(-c3ccccc3)cc2)nc1CN1CCCCC1CCO (stereo not drawn) [wact-279] + CNC(=O)O/N=C/C(C)(C)SC [aldicarb],inactive: 0
21,COc1cccc(-c2noc(-c3cccs3)n2)c1 [wact-136] + CNC(=O)O/N=C/C(C)(C)SC [aldicarb],inactive: 0
22,OCc1ccc(OCc2ccc(I)cc2)cc1 [wact-505] + CNC(=O)O/N=C/C(C)(C)SC [aldicarb],inactive: 0
23,CCOc1ccc(/C=C/C(=O)c2ccco2)cc1 [wact-89] + CNC(=O)O/N=C/C(C)(C)SC [aldicarb],inactive: 0
24,Cc1ccc(C(=O)/C=C(\c2ccccc2)N2CCCCC2)cc1 [wact-379] + CNC(=O)O/N=C/C(C)(C)SC [aldicarb],inactive: 0
25,Cc1c(Cl)ccc(OCCN2CCNCC2)c1C.O=C(O)C(=O)O [wact-80] + CNC(=O)O/N=C/C(C)(C)SC [aldicarb],inactive: 0
26,CN(CC(O)COc1cccc(CNCCc2ccc(F)cc2)c1)C1CCCCC1 (stereo not drawn) [wact-236] + CNC(=O)O/N=C/C(C)(C)SC [aldicarb],inactive: 0
27,CN(Cc1ccccc1)c1cc(-c2ccccc2)ncn1 [wact-189] + CNC(=O)O/N=C/C(C)(C)SC [aldicarb],inactive: 0
28,c1ccc(-c2ccc(-c3n[nH]cc3CNC3CCC3)cc2)cc1 [wact-251] + CNC(=O)O/N=C/C(C)(C)SC [aldicarb],inactive: 0

# Nos. 15 through 16 from above:
row,SMILES,aldicarb interaction hit call
15,Cl.c1ccc(COc2cccc(CNCc3cccs3)c2)cc1 [wact-118] + CNC(=O)O/N=C/C(C)(C)SC [aldicarb],inactive: 0
16,Fc1ccc(CNc2ccc(N3CCN(Cc4ccccc4)CC3)cc2)cc1 [wact-631] + CNC(=O)O/N=C/C(C)(C)SC [aldicarb],inactive: 0
